Data as given in ChEMBL document CHEMBL6103541, “Ringing medicinal chemistry: The importance of 3-membered rings in drug discovery” (Bioorg Med Chem, 2024).
Values after ≈ are worked out from the molar mass of the structure shown.

Columns and labels:
[1] = test system: Pseudomonas aeruginosa; assay: Antibacterial activity against Pseudomonas aeruginosa ATCC 15442 assessed as reduction in bacterial cell growth incubated for 18 hrs by two fold serial microdilution method; assay type: functional
[2] = test system: Escherichia coli; assay: Antibacterial activity against Escherichia coli assessed as reduction in bacterial growth by broth microdilution method; assay type: functional

SMILES: O=C(O)c1cn(C2CC2)c2cc(N3CCNCC3)c(F)cc2c1=O [CIPROFLOXACIN]
- MIC [1]: 0.08 µg/mL (≈ 0.241 µM)
- MIC [2]: 0.08 µg/mL (≈ 0.241 µM)
